# Source: publication PMC4404054
# Chains of the proteins cited; added tags and fusions are not shown. Residues count along the entry.
# UniProt P35968, residues 20-1356: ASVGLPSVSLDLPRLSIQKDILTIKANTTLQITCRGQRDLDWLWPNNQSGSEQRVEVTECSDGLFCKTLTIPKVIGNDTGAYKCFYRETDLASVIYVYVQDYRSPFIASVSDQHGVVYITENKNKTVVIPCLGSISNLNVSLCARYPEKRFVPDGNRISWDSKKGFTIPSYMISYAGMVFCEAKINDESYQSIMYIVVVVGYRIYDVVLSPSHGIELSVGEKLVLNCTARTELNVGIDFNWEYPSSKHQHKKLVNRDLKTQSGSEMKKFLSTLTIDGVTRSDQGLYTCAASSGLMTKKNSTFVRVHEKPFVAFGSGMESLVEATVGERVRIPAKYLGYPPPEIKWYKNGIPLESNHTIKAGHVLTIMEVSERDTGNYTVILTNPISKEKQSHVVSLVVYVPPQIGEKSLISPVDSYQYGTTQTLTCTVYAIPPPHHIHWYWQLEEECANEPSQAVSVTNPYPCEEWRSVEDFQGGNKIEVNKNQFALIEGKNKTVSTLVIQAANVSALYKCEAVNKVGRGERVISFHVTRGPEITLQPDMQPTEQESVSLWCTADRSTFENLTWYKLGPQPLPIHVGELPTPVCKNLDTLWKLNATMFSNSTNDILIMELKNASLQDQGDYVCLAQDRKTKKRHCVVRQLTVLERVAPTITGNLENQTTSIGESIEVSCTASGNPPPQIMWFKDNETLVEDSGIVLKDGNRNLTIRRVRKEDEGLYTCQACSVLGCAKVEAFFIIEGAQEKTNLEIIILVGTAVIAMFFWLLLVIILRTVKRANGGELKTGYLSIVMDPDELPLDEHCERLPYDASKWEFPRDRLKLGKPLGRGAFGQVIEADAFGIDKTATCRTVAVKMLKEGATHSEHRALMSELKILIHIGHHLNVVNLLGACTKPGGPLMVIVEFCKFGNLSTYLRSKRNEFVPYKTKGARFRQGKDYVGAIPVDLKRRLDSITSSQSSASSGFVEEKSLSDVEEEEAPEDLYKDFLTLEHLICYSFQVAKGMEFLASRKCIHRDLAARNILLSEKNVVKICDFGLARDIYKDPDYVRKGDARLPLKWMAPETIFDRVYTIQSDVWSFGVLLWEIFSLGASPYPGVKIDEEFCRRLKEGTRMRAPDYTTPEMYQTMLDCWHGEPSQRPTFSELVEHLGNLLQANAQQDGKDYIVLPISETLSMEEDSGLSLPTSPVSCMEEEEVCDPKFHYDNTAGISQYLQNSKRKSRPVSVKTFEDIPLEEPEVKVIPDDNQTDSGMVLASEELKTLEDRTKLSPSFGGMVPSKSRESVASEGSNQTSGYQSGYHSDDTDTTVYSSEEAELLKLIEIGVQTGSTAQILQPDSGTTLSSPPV
# UniProt P17948, residues 27-1338: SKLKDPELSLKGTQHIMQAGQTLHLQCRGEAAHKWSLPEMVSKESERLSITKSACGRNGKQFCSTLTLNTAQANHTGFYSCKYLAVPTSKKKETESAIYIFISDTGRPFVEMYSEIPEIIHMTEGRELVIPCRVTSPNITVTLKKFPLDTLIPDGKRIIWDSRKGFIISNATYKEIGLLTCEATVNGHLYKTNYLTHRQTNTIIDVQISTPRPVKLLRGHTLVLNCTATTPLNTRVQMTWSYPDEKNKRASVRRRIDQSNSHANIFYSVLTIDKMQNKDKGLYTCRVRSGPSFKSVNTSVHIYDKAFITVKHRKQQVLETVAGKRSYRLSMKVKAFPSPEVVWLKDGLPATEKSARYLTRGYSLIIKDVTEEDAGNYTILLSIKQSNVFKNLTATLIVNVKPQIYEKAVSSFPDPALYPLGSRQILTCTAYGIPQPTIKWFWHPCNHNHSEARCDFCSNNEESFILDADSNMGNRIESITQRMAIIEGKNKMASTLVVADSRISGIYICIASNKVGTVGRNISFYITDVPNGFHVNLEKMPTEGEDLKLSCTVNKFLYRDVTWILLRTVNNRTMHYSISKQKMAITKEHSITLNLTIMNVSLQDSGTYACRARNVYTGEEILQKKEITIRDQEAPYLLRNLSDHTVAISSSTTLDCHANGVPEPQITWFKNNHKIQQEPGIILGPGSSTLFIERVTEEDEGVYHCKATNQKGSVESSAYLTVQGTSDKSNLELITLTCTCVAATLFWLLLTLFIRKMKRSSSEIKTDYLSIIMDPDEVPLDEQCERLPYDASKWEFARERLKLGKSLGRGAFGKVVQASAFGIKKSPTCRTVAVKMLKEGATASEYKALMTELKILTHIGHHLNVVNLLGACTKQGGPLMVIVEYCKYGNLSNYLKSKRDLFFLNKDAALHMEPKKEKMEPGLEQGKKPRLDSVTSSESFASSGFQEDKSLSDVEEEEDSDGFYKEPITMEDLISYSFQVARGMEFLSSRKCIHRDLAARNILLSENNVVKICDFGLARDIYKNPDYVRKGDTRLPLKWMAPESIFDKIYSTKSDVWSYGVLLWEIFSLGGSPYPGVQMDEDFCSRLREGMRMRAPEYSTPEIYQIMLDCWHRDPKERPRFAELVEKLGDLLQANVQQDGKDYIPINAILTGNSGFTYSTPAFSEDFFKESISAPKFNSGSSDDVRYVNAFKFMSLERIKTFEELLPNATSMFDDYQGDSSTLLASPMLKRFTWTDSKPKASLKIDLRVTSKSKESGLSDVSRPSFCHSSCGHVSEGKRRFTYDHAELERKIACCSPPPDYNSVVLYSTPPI
# UniProt Q12923: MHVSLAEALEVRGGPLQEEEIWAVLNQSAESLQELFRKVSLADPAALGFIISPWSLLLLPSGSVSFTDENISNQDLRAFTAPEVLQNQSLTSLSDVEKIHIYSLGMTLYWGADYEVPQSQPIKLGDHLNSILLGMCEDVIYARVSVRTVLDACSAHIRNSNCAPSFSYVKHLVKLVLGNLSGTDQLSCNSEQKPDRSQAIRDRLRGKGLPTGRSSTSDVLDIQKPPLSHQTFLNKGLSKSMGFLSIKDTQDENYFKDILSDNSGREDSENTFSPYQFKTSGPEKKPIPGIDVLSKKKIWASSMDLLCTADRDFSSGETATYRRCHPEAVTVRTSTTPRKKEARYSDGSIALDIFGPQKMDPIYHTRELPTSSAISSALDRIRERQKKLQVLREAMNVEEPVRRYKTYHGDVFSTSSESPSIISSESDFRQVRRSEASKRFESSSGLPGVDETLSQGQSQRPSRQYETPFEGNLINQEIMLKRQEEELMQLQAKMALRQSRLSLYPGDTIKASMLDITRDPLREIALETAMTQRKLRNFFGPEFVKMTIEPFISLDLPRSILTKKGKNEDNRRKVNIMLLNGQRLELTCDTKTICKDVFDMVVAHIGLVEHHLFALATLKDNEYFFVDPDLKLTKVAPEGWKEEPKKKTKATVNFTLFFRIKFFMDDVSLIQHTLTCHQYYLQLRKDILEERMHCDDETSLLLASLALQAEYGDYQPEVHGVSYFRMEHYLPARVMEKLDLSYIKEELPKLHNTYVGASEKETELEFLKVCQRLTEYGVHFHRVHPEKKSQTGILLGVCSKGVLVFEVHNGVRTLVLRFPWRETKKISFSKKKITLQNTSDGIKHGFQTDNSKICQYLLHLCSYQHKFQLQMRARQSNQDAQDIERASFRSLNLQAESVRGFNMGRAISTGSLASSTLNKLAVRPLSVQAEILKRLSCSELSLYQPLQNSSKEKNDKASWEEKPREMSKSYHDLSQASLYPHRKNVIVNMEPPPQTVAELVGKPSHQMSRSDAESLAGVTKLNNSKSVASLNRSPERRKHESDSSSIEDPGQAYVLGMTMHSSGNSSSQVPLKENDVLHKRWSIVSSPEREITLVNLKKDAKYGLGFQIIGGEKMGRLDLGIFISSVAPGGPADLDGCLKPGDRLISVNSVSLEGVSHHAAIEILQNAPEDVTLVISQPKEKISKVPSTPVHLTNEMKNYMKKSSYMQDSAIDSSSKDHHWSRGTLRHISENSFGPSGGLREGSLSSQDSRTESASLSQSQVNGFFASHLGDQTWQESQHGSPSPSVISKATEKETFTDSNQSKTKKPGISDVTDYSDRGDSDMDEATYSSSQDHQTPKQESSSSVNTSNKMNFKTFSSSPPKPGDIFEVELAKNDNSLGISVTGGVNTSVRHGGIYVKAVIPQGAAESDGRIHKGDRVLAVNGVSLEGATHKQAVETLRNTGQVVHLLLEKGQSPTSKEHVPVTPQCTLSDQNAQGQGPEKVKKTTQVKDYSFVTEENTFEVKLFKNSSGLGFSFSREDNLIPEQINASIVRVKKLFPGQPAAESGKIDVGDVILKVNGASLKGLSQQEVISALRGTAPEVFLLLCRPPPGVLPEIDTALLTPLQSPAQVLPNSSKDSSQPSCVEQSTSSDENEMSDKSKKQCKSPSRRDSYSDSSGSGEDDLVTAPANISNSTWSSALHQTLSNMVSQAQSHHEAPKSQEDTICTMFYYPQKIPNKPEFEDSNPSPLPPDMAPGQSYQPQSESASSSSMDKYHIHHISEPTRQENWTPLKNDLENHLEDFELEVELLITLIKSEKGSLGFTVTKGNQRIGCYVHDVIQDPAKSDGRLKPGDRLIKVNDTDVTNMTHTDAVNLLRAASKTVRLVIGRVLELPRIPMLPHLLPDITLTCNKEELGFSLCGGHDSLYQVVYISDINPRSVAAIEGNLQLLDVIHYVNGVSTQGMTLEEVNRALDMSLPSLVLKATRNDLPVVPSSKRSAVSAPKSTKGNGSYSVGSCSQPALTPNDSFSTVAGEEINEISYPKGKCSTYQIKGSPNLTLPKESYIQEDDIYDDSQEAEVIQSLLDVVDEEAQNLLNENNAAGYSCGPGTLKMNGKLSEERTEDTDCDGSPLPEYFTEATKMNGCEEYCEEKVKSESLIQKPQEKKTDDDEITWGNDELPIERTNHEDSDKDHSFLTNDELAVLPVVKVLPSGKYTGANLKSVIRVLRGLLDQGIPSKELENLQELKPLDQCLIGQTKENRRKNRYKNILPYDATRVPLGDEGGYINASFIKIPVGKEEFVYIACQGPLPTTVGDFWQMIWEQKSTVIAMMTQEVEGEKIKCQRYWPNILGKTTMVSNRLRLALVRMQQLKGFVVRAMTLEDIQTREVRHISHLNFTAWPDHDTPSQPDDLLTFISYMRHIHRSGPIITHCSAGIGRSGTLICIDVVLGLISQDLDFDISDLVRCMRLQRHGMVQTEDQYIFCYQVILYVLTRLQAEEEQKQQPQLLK
# These are yes or no findings as the source states them, for the method shown. In cells and extracts the contact can be indirect. Some binding calls cover weakened binding; strength is not graded here. For some assays here: Sequences can lack the tags named with a protein.
# T1: FLAG-Necl-4 (UniProt Q8R464)
# T1 sequence: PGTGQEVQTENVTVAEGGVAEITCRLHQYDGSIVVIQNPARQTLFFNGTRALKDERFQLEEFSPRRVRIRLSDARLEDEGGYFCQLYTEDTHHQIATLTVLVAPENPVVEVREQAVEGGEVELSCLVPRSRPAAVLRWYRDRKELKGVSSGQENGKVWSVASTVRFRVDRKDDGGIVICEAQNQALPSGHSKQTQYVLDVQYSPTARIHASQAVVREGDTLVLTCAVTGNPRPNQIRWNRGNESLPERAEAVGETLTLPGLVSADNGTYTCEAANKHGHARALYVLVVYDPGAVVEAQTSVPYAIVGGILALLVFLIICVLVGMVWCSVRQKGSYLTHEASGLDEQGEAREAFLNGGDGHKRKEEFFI
# Legend:
# FLAG-Necl-4 = target: T1, FLAG-Necl-4; assay: co-IP; HEK293 cells co-transfected with FLAG-tagged Necl-4 (or Necl-4-ΔCP, Necl-4-ΔEC) and VEGFR1 or VEGFR2; lysates precipitated with anti-FLAG mAb (IgG as control), Western blotting
# [1] = target: endogenous VEGFR2 (human (endogenous in HUVECs)) (UniProt P35968); assay: co-IP; data not shown; PTPN13 co-immunoprecipitated with VEGFR2, sparse versus confluent conditions
# [2] = target: endogenous VEGFR2 (human (endogenous in HUVECs)) (UniProt P35968); assay: co-IP; lysates of HUVECs cultured under sparse (25% confluence) or confluent (100% confluence) conditions; precipitated with anti-VEGFR2 pAb (IgG as control), Western blotting
binding (FLAG-Necl-4),binding [2],Molecule,also measured
binds,,VEGF receptor (VEGFR) 1 (from UniProt P17948 27-1338),
binds,,VEGFR2 (transfected) (from UniProt P35968 20-1356) (receptor),
,,"protein-tyrosine phosphatase, non-receptor type 13 (PTPN13) (from UniProt Q12923 1-2485) (enzyme)",binding [1]: binds
,binds,"vascular endothelial cadherin (VE-cadherin) (protein, UniProt P33151 48-784) DWIWNQMHIDEEKNTSLPHHVGKIKSSVSRKNAKYLLKGEYVGKVFRVDAETGDVFAIERLDRENISEYHLTAVIVDKDTGENLETPSSFTIKVHDVNDNWPVFTHRLFNASVPESSAVGTSVISVTAVDADDPTVGDHASVMYQILKGKEYFAIDNSGRIITITKSLDREKQARYEIVVEARDAQGLRGDSGTATVLVTLQDINDNFPFFTQTKYTFVVPEDTRVGTSVGSLFVEDPDEPQNRMTKYSILRGDYQDAFTIETNPAHNEGIIKPMKPLDYEYIQQYSFIVEATDPTIDLRYMSPPAGNRAQVIINITDVDEPPIFQQPFYHFQLKENQKKPLIGTVLAMDPDAARHSIGYSIRRTSDKGQFFRVTKKGDIYNEKELDREVYPWYNLTVEAKELDSTGTPTGKESIVQVHIEVLDENDNAPEFAKPYQPKVCENAVHGQLVLQISAIDKDITPRNVKFKFILNTENNFTLTDNHDNTANITVKYGQFDREHTKVHFLPVVISDNGMPSRTGTSTLTVAVCKCNEQGEFTFCEDMAAQVGVSIQAVVAILLCILTITVITLLIFLRRRLRKQARAHGKSVPEIHEQLVTYDEEGGGEMDTTSYDVSVLNSVRRGGAKPPRPALDARPSLYAQVQKPPRHAPGAHGGPGEMAAMIEVKKDEADHDGDGPPYDTLHIYGYEGSESIAESLSSLGTDSSDSDVDYDFLNDWGPRFKMLAELYGSDPREELLY",
,binds,"endogenous Necl-4 (protein, UniProt Q8NFZ8 21-388) PGAGQEVQTENVTVAEGGVAEITCRLHQYDGSIVVIQNPARQTLFFNGTRALKDERFQLEEFSPRRVRIRLSDARLEDEGGYFCQLYTEDTHHQIATLTVLVAPENPVVEVREQAVEGGEVELSCLVPRSRPAATLRWYRDRKELKGVSSSQENGKVWSVASTVRFRVDRKDDGGIIICEAQNQALPSGHSKQTQYVLDVQYSPTARIHASQAVVREGDTLVLTCAVTGNPRPNQIRWNRGNESLPERAEAVGETLTLPGLVSADNGTYTCEASNKHGHARALYVLVVYDPGAVVEAQTSVPYAIVGGILALLVFLIICVLVGMVWCSVRQKGSYLTHEASGLDEQGEAREAFLNGSDGHKRKEEFFI",
